# Reference: PubChem BioAssay AID1347423 (Functional Genomics Laboratory (NCATS/FGL), 2020)
# Hit rate of the full screen: of about 52,000 sequences, about 210 (0.4%) were called active.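 The calls were made as follows: active = gene whose silencing raises cell survival under the drug, median off-target-corrected z-score across its silencing RNAs 2 or more; inactive = the rest.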 This is one part of the list.
# Assay: Resistance to Poly (ADP-Ribose) Polymerase inhibitor: Gene Identification via Genome-wide siRNA Screen
# Conditions: mouse BRCA2 R2336H ES cells, olaparib, CellTiter-Glo viability; stronger effect = higher value
# Summary of the method: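 Mouse BRCA2 R2336H ES cells were reverse-transfected with siRNA (20 nM final), treated at 48 h with 500 nM olaparib, and read by CellTiter-Glo after 72 h. Scores: MAD-based z per siRNA, median per gene, seed off-target correction.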
row,Sequence,z-score
1,GGGCUCUGUGGAAAUCAUGTT against AB030190,inactive: 1.79
2,GGAACUGUUGAAGAAACUGTT against 1700080E11Rik,inactive: -0.0208
3,GGGCAAAAACAAGCAAAAATT against D15Ertd366e,inactive: 1.15
4,UGUCAACUGACUGUAGUAATT against Zmynd12,inactive: 1.31
5,GCAUGCGCAUGUCAUUGAATT against Zdhhc1,inactive: -0.278
6,GGCUGCAAGCAAAAAUAGATT against 1700029J07Rik,inactive: -0.432
7,CCCAGCUAUGCGAUCUUAATT against 1300003B13Rik,inactive: -1.51
8,GGACUGUUGUAUUUGUGUGTT against Bmper,inactive: -0.936
9,CCACAAUUACCCAGUAUGATT against Olfr498,inactive: 0.677
10,GCACUUACCUAACACUAUCTT against Sva,inactive: 0.172
11,GGAGAAAACUCAUGGCCCUTT against Prkag3,inactive: 1.12
12,CCUACGAGUUCAUCGUGUATT against 5730438N18Rik,inactive: -1.51
13,CGAAGACGUAAUUACGAAATT against 2610311B01Rik,inactive: 0.0445
14,CGACUCUUGCCUGUUCGUGTT against Thsd6,inactive: -1.34
15,GCAAGACAAGUUCUACGAUTT against Csad,inactive: 0.728
16,GGUAAGUUAAAUGAUGACATT against 5830402J09,inactive: -1.79
17,CCUUUUAAGUUCCUCCCACTT against Pdxp,inactive: 0.634
18,GCUCCUCACUUAUUGCCCATT against Zfp354b,inactive: -0.0507
19,GCGUGGAUCAACUCAUGGATT against Apoa1bp,inactive: 0.777
20,GGCUUUUGAGCUGGUCUUCTT against Ntn3,inactive: -0.649
21,GGAAAGCAGACUUCUAAAGTT against Pdgfc,inactive: 0.43
22,GGCAGAUCAUUGGAUUCUATT against 0610009M14Rik,inactive: -2.06
23,GAAGAGAAUGGAGAGAGAGTT against Vpreb2,inactive: -0.0536
24,GCCUGCUUUGGAAAAAUCATT against Akr1c12,inactive: 0.374
25,GGACGUGAAGUGAAGUCAUTT against 1810009N02Rik,inactive: 3.33
26,CCUCAGGUGUGUUUACAACTT against A230083G16Rik,inactive: 0.61

row,Sequence,z-score
1,CCCACAGGACUCAUUAACATT against Rab4a,inactive: 1.36
2,GGAAUAUCUUCUGAUUGUCTT against Dncl2b,inactive: -2.18
3,CGUAAGGCCUAAGGUUAUUTT against Leng1,inactive: -0.274
4,GGAUCUACUAGGAAAGAAATT against Serpini1,inactive: -1.9
5,GCCUUUAUACAAUUAGACUTT against Has3,inactive: 1.28
6,GGCCAACAUGCUAUACUUCTT against Stat2,inactive: -0.117
7,GCUUAAGUGCAGUAAUAUCTT against 4932411N23Rik,inactive: 0.0708
8,CCAGAAAUUGACAAAAAGUTT against Etfa,inactive: 0.881
9,GCCGAUGAACCAAUGGAACTT against Psma1,inactive: -1.42
10,GGAACCAAUCAGUUGGUUATT against Taf7,inactive: 1.04
11,CGUAUUUUUACUGGUUGGGTT against LOC381062,inactive: -0.378
12,GGAGAUCUUCAACUGCCACTT against Rps6kl1,inactive: 0.463
13,GGGAGUGUAUAAACCUCGGTT against Vdac2,inactive: 0.613
14,GAUAUGUGCACAAUUCUGCTT against V1ri4,inactive: -0.638
15,GGAAAAACAAAUUCAGCAUTT against Suhw3,inactive: 0.586
16,GCCUAGAAUCAAUGGAACCTT against Olfr402,inactive: 1.06
17,GGCAGAAGACCAAAAUUGGTT against Pmm2,inactive: -0.489
18,GGUGCUCUCAAGUGGGAUUTT against 4921507A12,inactive: 0.135
19,GGUUUCCAACAACAUCAAATT against Hsd17b12,inactive: 1.7
20,CCUCCUUUUAGACAGAUGCTT against LOC245297,inactive: -0.431
21,CCUGAUACUAACAAGGAAATT against Afmid,inactive: 0.96
22,GGGUGUUCUACAGAAAUGATT against Orc5l,inactive: -0.885
23,GGCAUAUGUUGAAACUAUUTT against 2310045A20Rik,inactive: 0.327
24,GGUUUUCCCACUCUUUCACTT against 1200011M11Rik,inactive: 0.419
25,GGACAAGUAUAGCCAUCUUTT against Spag7,inactive: -1.04
26,GCUUGGUUGGCCUUUUCCATT against Olfr320,inactive: 0.358

row,Sequence,z-score
1,GGGAGAAAGAUUGUAACUATT against 1110032A03Rik,inactive: -0.819
2,CCUUAUCCAGACAUAGAUUTT against BC027344,inactive: 0.287
3,GGUCCCUUCUUCUCAAGGUTT against Olfr1,inactive: 1.82
4,CCCAGGACAAAAUAGUGUCTT against Olfr164,inactive: 0.807
5,GGAAAAAGACCACAGCCAGTT against Oaz3,inactive: -1.12
6,GCACUCGUCGUUUGGCUAUTT against Pitx1,inactive: -1.18
7,GGCCCUGUAGAAGACAAUGTT against Plxna1,inactive: -0.772
8,GGACACCAUUGGCUCCUUATT against 2010004O20Rik,inactive: -1.65
9,GGAAGAAAACAAAGACGGCTT against Mxd4,inactive: 0.485
10,GGCCUAUUGUAAAAACCCATT against Taf1b,inactive: -1.03
11,GGUUUUGAAGUGAUUGAAGTT against Tjp2,inactive: -0.548
12,GGGACGUGUUAAAAAGGGCTT against Cldn5,inactive: 1.61
13,CGAGACUAACCUUUAGUUATT against AI661017,inactive: -0.0544
14,GGUUUCAUUUGGAUUUGCATT against 3930401K13Rik,inactive: -0.475
15,GGAUUGUUCUUUCUUUCUCTT against Stac,inactive: 0.619
16,GGGUAAACUAUUUGUUGUUTT against Arl6ip6,inactive: -0.282
17,GCUGAGCUGCGCUUAUUGGTT against Fes,inactive: 0.319
18,GGUGUGAAAAGAGGAGGAGTT against Zfp71-rs1,inactive: -1.08
19,GGAGGAUAAGGAUACAGUATT against Cspg5,inactive: -1.3
20,CGAGAAUACCAAACUCGUGTT against Dub2a,inactive: 0.0305
21,GGACAUGAGUGUCAAUUCUTT against 6330503C03Rik,inactive: 1.5
22,GGUAAGUUUGGGAACAUUGTT against 4933413B09Rik,inactive: -2.02
23,GGAAGUAACCACAUCCUAUTT against Epn2,inactive: 1.08
24,GGGAAUGGGUGUUCAUCCATT against Tnf,inactive: 0.467
25,GCCUCUCCUGUGAAUGACATT against 4933407N01Rik,inactive: -1.07
26,CGCGAAAUAUGUGUGUUUATT against Nr4a2,inactive: 1.21

# Retrieved one by one from the entries so far, 4 records:
row,Sequence,z-score
8,GGACACCAUUGGCUCCUUATT against 2010004O20Rik,inactive: -1.65
25,GCCUCUCCUGUGAAUGACATT against 4933407N01Rik,inactive: -1.07
7,GGCCCUGUAGAAGACAAUGTT against Plxna1,inactive: -0.772
2,CCUUAUCCAGACAUAGAUUTT against BC027344,inactive: 0.287

# Remaining list, next part:

row,Sequence,z-score
1,GCCCUAUCUACGAUGAAAATT against Scamp2,inactive: -1.04
2,GGAAAAGCACAGAUUUCUATT against 4932432K03Rik,inactive: -0.489
3,CUCCCAAAUGGAAUUGCAUTT against Rc3h1,inactive: -2.85
4,GGAGGGAGAACUCAUCGAATT against Nudt14,inactive: -0.904
5,CGACAUCGACAGUCUAUAATT against Abp1,inactive: -0.292
6,GGAUAGCGUGAAAUGAUUATT against Nqo3a2,inactive: 0.75
7,GGUCAUGAUGGAAUGAGAATT against 9130404D14Rik,inactive: 0.458
8,UCUUACAAACUAGCUCUCCTT against Crabp2,inactive: 0.411
9,GGACAGAGAUCAAUAUUAATT against BC053073,inactive: 0.416
10,CCACCAAAAUUUCAUGAUATT against Eps15-rs,inactive: 0.0444
11,GCACGAAGAGUUAAUGGAGTT against Aym1,inactive: 1.84
12,GGGUGGUCAGGAAAAUCAUTT against Notch1,inactive: 2.31
13,GGAGAAAAAGUCUGAAAGATT against Hel308-pending,inactive: -1.04
14,GGAGAGAUUUUUCUAUCAUTT against D030060O14Rik,inactive: 0.307
15,GCUGACGAAACCAUUGAAUTT against Ugt1a10,inactive: -0.574
16,GGAUGUCUGUCCUCUUAAATT against MGC30332,inactive: -1.67
17,CCAUAGAUAUUUACGGAAATT against Slc9a4,inactive: 0.519
18,CCAGCUAAUCCCAACAUGCTT against Pum1,inactive: 0.681
19,GCAUCAGGAUUCUGAUAACTT against Mrgpra6,inactive: -0.862
20,GCCUUCUGCUCCGAAGAAGTT against Rpl13,inactive: -3.02
21,CCUUGUGUAAGAGGUUUUUTT against Helz,inactive: 0.0206
22,GGAUUAAGUGGUCAAAUGATT against Ugt2b36,inactive: 0.814
23,GGACCAAGCUGUUAUUAACTT against Dhodh,inactive: -0.104
24,GCGAUUGCAAGAGGACCUATT against Hr6bn,inactive: 0.726
25,GCAAGCAGACUUGUCCUUCTT against Hnrpc,inactive: -0.33
26,CCAUGGCUUACGAGAGACATT against D430028G21Rik,inactive: 1.07
